In data set [1] the target is cSID1 K193A + K198A (Caenorhabditis elegans) (UniProt Q9GZC8). The experiment in a line: EMSA. The settings on record: 0-24 uM protein, 1 uM dsRNA, binding almost completely eliminated; EMSA: 25 mM Tris pH 8.0, 25 mM NaCl, room temperature, 60 min, 6% native gel in 0.5x TBE; recombinant protein; protein details: His6 and FLAG after the signal peptide. (In general: Mobility shift assays separate free from complexed probe on a gel.)

Protein sequences, listed by entry. Tags and fused reporters are not part of them. Residues count along the entry.
UniProt Q9GZC8, 18-776 K193A/K198A: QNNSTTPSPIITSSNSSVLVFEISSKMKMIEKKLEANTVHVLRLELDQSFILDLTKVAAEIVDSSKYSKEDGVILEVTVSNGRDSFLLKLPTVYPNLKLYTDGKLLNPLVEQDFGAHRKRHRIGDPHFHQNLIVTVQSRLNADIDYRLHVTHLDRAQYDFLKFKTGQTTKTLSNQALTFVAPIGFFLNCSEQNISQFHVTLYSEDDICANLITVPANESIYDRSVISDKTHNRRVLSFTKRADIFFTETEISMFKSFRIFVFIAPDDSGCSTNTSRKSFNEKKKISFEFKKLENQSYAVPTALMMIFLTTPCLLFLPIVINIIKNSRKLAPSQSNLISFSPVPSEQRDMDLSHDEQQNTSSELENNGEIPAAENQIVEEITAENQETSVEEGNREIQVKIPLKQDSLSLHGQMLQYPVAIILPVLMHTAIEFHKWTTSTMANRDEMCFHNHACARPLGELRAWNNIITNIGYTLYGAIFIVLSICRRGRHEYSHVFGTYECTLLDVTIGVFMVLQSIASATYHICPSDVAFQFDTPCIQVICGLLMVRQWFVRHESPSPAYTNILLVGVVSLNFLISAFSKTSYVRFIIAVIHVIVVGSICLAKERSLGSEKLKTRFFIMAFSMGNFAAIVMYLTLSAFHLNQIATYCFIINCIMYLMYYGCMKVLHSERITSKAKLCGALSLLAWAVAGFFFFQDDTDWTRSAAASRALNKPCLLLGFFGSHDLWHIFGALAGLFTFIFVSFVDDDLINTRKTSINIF
UniProt Q9GZC8, 18-776 K43A/K45A: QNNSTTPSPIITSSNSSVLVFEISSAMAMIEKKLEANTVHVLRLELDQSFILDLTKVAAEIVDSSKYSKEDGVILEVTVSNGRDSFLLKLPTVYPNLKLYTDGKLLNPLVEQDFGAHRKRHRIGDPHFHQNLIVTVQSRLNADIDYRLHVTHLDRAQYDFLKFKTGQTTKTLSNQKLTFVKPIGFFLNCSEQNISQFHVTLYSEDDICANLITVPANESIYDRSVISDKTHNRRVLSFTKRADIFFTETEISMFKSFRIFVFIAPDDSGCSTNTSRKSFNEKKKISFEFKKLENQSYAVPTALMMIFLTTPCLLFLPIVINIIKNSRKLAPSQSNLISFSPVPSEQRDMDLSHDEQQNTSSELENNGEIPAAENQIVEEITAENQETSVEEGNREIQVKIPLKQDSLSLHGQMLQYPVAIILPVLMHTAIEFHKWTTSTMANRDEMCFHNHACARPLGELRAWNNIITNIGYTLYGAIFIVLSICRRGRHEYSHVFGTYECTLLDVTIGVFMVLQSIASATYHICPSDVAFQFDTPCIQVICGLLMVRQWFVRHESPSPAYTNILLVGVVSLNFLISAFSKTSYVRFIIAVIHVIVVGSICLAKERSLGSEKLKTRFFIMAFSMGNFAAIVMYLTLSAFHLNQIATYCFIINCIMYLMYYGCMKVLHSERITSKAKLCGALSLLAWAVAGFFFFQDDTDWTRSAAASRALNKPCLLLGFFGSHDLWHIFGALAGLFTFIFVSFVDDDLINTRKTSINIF

The target in data set [2] is cSID1 K43A + K45A (Caenorhabditis elegans) (UniProt Q9GZC8). The experiment in a line: EMSA. The settings on record: 0-24 uM protein, 1 uM dsRNA, binding almost completely eliminated; EMSA: 25 mM Tris pH 8.0, 25 mM NaCl, room temperature, 60 min, 6% native gel in 0.5x TBE; recombinant protein; protein details: His6 and FLAG after the signal peptide.

The exact form of at least one protein or probe is not confirmed. The comparison behind a weaker result is the experiment's own reference, which may not be listed here.

Regarding “GGCCGGGGGACGGGCUGGGAUGACAGAAGUCGCUUGGUGCAGAUCGGGAC / GUCCCGAUCUGCACCAAGCGACUUCUGUCAUCCCAGCCCGUCCCCCGGCC [FAM 50-bp dsRNA]”, the binding result in data set [1] and in data set [2] was “binds more weakly” in each case.

Source of the values: PMC11194109.
